The source of these data is patent US20110166032A1, “Design and Use of Sortilin Specific Molecular Imaging Ligands” (H. LUNDBECK A/S, priority 2008, published 2011).

Protein sequences, listed by entry. Tags and fused reporters are not part of them. Lines headed by an entry give the natural chain unless they say otherwise; changes in a name come on top.
UniProt Q99523: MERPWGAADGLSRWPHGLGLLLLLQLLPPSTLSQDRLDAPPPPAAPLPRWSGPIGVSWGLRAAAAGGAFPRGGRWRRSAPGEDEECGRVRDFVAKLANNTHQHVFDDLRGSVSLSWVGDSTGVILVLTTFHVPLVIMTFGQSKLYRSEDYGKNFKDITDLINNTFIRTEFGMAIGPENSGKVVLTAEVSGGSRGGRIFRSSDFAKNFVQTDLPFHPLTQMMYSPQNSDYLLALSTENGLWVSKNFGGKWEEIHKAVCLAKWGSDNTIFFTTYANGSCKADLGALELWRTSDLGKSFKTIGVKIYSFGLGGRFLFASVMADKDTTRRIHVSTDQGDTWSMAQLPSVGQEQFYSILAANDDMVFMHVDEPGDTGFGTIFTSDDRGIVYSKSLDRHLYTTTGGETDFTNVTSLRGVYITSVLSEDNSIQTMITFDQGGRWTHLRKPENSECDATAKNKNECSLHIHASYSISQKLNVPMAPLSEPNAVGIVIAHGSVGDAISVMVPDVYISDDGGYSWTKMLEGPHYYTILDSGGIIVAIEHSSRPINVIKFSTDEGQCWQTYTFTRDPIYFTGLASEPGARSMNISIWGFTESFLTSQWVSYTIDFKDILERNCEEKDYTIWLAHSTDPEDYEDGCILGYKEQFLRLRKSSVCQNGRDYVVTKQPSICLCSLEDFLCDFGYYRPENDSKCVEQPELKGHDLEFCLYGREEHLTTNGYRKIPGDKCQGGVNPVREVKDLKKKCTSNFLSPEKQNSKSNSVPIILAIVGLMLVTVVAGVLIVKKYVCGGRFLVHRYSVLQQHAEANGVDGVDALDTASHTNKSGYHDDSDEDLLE

These are yes or no findings as the source states them, for the method shown. Some results given as binding are weak or reduced against the parent protein; the word gives no strength.

This experiment concerns the target sSortilin S316E mutant (human) (UniProt Q99523). The experiment in a line: SPR, immobilised S316E sSortilin.

B1: Mature BDNF (ligand)
chain: HSDPARRGELSVCDSISEWVTAADKKTAVDMSGGTVTVLEKVPVSKGQLKQYFYETKCNPMGYTKEGCRGIDKRHWNSQCRTTQSYVRALTMDSKKRIGWRFIRIDTSCVCTLTIKRGR
Consider B1, for which the binding result was “binds”.
